Values quoted from earlier work in patent US20240082237A1, “PHARMACEUTICAL COMPOSITIONS COMPRISING A DEXTROMETHORPHAN COMPOUND AND QUINIDINE FOR THE TREATMENT OF AGITATION IN DEMENTIA” (priority 2014, published 2024).
pKi: −log10 of the molar value. Some results were stated once for a whole list of compounds, not compound by compound.

Protein sequences, listed by entry. Tags and fused reporters are not part of them.
UniProt P10635, whole entry: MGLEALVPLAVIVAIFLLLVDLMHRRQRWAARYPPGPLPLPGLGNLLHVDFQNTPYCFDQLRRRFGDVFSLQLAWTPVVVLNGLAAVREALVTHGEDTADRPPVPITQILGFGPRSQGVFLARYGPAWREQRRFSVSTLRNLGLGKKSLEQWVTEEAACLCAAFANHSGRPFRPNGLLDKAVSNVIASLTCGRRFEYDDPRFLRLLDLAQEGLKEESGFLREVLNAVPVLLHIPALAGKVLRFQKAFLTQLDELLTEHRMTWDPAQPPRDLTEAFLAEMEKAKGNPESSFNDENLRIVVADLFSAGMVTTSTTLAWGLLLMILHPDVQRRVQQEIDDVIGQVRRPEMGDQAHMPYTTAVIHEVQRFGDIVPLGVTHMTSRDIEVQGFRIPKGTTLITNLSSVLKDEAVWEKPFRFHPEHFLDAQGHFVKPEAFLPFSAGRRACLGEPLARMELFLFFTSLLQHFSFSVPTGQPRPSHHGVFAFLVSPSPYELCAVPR

Target: CYP2D6 (Homo sapiens, UniProt P10635)
Conditions: read-out: Ki value (Michaelis-Menton inhibition value); as reported in Inaba et al.; cited from earlier work

| Structure (SMILES) | pKi |
| --- | --- |
| CC[C@H]1[C@@H]2C[C@H]3[C@@H]4N(C)c5ccccc5[C@]45C[C@@H]([C@H]2[C@H]5O)N3[C@@H]1O [ajmaline] | ≥ 4.30 |
| COc1ccc(Cc2nccc3cc(OC)c(OC)cc23)cc1OC [papaverine] | ≥ 4.30 |
